From PubChem BioAssay AID2685 (National Center for Advancing Translational Sciences (NCATS), 2010)
The list shows a part of the results. These are further read-outs of the screen, such as a control signal, another cell line or another target. No call is given for them. The list favours compounds with an active or inconclusive main result. Potencies come from curve fits of mixed quality, noted in brackets.

Test: qHTS Assay for Lipid Storage Modulators in Drosophila S3 Cells;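 as to cell number change: cells counted by Cell Tracker Red CMTPX staining in the red channel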
Conditions: BODIPY lipid droplet fluorescence, 18-24 h; for cell number change: measured here: cell count max response, cells fed with added oleic acid
In short: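 Laser-scanning cytometry quantifies lipid droplet accumulation (500–530 nm total intensity; droplet/cell object ratio) in oleic acid-fed (400 uM added) Drosophila S3 cells treated with a concentration series. 20 uM Triacsin C defined 100% inhibition.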

[1] = measured here: lipid fluorescence (Fed channel) AC50, cells fed with added oleic acid
[2] = measured here: cell number channel AC50, cells fed with added oleic acid

Row | SMILES | cell number change | AC50 [1] | AC50 [2]
1 | COc1ccccc1CN1CN(S(=O)(=O)c2ccccc2)c2nc3ccccc3nc21 | 0.534% | 29.1 µM [rising, single point] | –
2 | COc1ccc(Nc2ccc(OC)cc2)cc1 | 0.0184% | 29.1 µM [falling, single point] | –
3 | COC(CNc1ncnc2c1cnn2C)OC | -11.2% | 0.00461 µM [rising, full curve, poor fit] | –
4 | COc1ccc(C(CNC(=O)C(C)(C)Oc2ccc(Cl)cc2)N2CCCC2)cc1 (centres undefined) | -4.41% | – | –
5 | O=C(O)CC(=O)Nc1ccccc1C(=O)O | -35.3% | 0.00517 µM [falling, full curve, poor fit] | –
6 | CCC(C)(C)n1nnnc1C(c1cc2cc(C)cc(C)c2[nH]c1=O)N1CCN(Cc2ccc3c(c2)OCO3)CC1 (centres undefined) | 115% | 4.11 µM [rising, single point] | 4.11 µM [rising, partial curve]
7 | COc1ccc(CN2CC(C(=O)NCCN3CCOCC3)CC2=O)cc1 (centres undefined) | -32% | 3.66 µM [falling, full curve] | 2.59 µM [falling, full curve]
8 | Cc1ccc(NC(=O)c2cccc(S(=O)(=O)N3CCN(c4ccccc4)CC3)c2)nc1 | -12.7% | – | –
9 | C/C(=N\NC(=O)c1nc2ccccn2c1C)c1ccco1 | 23.8% | 0.58 µM [rising, full curve, poor fit] | –
10 | COc1ccc(CC(=O)Nc2ccc(S(=O)(=O)Nc3nccs3)cc2)cc1 | -5.83% | 4.61 µM [rising, single point] | –
11 | CCN1CCSc2ccc(C(=O)NCc3ccccc3C)cc21 | -6.05% | 3.66 µM [rising, single point] | –
12 | CSc1nc2c(c(=O)[nH]c(=O)n2C)n1C/C=C(\C)Cl | – | – | 0.651 µM [falling, partial curve]
13 | CC(C)C(=O)NC(=S)N(Cc1ccccc1)Cc1ccccc1 | -9.69% | 0.164 µM [falling, full curve, poor fit] | –
14 | COC(=O)C(C)Sc1snnc1-c1ccccc1 (centres undefined) | -30.6% | – | 1.3 µM [falling, full curve]
15 | O=C1CC(NS(=O)(=O)c2ccccc2F)CN1c1ccc2c(c1)OCCO2 (centres undefined) | 47.8% | – | 18.4 µM [rising, single point]
16 | C=CCCN([C@@H](C)C(=O)OC)S(=O)(=O)c1ccccc1Br | -10% | 0.58 µM [falling, partial curve, poor fit] | –
17 | Cc1cc(C(F)(F)F)nn1-c1nc(-c2ccco2)cc(C(F)(F)F)n1 | -40.2% | 1.84 µM [rising, partial curve] | 11.6 µM [falling, partial curve]

2 neighbouring compounds already listed:
Row | SMILES | cell number change | AC50 [1] | AC50 [2]
16 | C=CCCN([C@@H](C)C(=O)OC)S(=O)(=O)c1ccccc1Br | -10% | 0.58 µM [falling, partial curve, poor fit] | –
17 | Cc1cc(C(F)(F)F)nn1-c1nc(-c2ccco2)cc(C(F)(F)F)n1 | -40.2% | 1.84 µM [rising, partial curve] | 11.6 µM [falling, partial curve]
